Measurements: patent publication US10660903B2, “Orodispersible dosage unit containing an estetrol component” (ESTETRA SPRL, priority 2015, dated 2020)
At least one read-out could not be matched to a standard name with certainty.

Experiment: Randomized, open-label, two-period, cross-over pharmacokinetic study, sublingual versus oral estetrol
Assay type: in vivo, human
Settings: 10 mg estetrol, healthy female volunteers, fasting
Description: A randomized, open-label, two-period, cross-over, pharmacokinetic study is conducted to compare sublingual bioavailability of 10 mg estetrol administered in one 100 mg tablet with oral availability of estetrol contained in a 83 mg tablet containing 10 mg estetrol. These tablets are administered sublingually and orally to healthy female volunteers under fasting conditions.
Ten healthy female subjects are selected on the basis of the following criteria: age of 45-65 years (inclusive), nonsmokers or past smokers (at least 6 months before dosing), body-mass index (BMI)=18.5 to 30 kg/m^2 (inclusive at the time of the screening).
At the start of the first and the second period of the study, between 07:00 am and 07:28 am, 5 subjects receive a single dose of the sublingual formulation of estetrol by administering one estetrol tablet (tablet weight 100 mg; 10 mg estetrol) and 5 subjects receive a single oral dose of the oral estetrol formulation by administering one estetrol tablet (tablet weight 83 mg; 10 mg estetrol), ingested together with 200 ml water. […]
The estetrol concentration in the collected blood samples is determined by means of HPLC/MS/MS. The concentrations of glucuronided estetrol (D-ring) in the urine samples is also determined with the help of HPLC/MS/MS.

## C[C@]12CC[C@@H]3c4ccc(O)cc4CC[C@H]3[C@@H]1[C@@H](O)[C@@H](O)[C@@H]2O [estetrol, 1,3,5 (10)-estratrien-3,15α,16α,17β-tetrol]
Sublingual 100 mg tablet vs oral 83 mg tablet
  bioavailability of sublingually administered estetrol relative to orally administered estetrol: comparable or even superior
Sublingual vs oral
  time of bioavailability, sublingual compared to oral estetrol: earlier bioavailability
